Laboratory results from the supplement of paper PMC10849652.
The other results are listed elsewhere or left out.

Amino acid sequences for entries named in this document (tags omitted). A change or cut given only in a name is not applied to a line headed by its entry.
UniProt Q7Z401: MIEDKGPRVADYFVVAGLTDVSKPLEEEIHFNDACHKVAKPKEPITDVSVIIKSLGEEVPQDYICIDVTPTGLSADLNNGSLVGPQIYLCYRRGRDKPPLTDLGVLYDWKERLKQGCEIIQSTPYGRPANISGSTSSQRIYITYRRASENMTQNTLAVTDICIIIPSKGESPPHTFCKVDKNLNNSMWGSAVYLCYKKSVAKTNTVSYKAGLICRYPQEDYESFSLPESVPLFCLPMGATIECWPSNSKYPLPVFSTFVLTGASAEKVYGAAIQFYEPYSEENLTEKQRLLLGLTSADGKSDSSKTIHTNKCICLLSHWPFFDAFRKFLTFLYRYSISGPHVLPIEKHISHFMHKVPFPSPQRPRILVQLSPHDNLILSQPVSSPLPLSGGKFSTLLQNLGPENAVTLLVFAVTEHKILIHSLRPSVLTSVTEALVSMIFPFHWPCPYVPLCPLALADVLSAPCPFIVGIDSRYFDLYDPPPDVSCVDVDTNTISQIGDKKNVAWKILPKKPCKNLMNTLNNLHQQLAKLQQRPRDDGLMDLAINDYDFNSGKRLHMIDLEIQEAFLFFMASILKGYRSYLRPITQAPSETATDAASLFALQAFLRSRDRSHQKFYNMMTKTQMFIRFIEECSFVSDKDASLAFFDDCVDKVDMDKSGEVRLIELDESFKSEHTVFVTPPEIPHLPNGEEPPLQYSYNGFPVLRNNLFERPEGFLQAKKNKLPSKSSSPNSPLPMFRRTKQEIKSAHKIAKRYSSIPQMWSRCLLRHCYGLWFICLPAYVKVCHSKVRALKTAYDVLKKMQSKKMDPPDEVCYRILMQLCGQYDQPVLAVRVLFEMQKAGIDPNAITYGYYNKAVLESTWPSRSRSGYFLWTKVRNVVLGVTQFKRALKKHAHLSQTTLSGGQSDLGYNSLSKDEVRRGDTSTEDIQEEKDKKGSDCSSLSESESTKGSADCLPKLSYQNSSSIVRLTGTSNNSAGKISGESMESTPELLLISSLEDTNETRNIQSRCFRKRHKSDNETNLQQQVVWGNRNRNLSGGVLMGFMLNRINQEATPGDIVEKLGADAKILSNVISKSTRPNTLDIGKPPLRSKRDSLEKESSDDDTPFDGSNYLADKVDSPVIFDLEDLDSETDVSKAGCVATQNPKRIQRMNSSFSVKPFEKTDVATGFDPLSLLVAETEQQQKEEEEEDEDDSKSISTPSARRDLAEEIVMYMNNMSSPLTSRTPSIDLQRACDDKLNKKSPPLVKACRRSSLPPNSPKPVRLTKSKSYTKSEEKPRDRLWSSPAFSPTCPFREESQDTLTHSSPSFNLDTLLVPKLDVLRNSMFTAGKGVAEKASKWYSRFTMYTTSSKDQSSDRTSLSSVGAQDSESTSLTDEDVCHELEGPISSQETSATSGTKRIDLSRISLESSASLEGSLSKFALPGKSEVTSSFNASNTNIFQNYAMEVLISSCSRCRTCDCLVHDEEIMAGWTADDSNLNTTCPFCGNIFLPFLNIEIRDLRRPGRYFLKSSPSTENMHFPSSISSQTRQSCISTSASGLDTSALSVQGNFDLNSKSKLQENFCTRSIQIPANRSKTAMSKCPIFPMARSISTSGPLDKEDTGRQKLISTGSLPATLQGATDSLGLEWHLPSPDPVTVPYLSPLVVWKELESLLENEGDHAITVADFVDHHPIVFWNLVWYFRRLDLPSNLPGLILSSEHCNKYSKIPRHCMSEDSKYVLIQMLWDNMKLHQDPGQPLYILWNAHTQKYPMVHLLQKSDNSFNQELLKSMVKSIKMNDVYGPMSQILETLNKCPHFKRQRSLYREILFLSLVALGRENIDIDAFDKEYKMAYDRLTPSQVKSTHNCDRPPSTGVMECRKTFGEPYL
UniProt Q9H773: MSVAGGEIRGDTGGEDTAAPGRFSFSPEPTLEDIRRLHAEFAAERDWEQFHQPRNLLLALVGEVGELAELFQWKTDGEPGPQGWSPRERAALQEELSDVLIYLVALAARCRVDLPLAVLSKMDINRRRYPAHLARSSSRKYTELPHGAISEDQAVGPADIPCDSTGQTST
UniProt Q9NXF7, whole entry, looked up: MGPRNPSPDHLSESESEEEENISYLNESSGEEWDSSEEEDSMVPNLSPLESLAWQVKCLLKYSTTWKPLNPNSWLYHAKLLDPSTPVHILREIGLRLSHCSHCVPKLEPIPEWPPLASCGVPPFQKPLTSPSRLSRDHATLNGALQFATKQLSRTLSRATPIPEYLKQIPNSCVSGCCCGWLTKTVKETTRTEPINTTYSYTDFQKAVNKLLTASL
UniProt Q92466: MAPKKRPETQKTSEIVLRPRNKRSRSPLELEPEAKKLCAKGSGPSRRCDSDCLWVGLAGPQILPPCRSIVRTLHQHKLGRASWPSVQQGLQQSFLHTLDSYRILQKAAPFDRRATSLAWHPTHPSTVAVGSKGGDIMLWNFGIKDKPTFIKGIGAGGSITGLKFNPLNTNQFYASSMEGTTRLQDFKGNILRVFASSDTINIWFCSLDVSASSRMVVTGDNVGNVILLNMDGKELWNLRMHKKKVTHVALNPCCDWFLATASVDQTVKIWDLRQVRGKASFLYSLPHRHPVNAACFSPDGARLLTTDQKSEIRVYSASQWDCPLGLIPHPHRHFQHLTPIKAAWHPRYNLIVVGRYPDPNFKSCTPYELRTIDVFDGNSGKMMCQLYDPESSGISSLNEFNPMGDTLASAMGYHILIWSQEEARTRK
UniProt Q6PI48: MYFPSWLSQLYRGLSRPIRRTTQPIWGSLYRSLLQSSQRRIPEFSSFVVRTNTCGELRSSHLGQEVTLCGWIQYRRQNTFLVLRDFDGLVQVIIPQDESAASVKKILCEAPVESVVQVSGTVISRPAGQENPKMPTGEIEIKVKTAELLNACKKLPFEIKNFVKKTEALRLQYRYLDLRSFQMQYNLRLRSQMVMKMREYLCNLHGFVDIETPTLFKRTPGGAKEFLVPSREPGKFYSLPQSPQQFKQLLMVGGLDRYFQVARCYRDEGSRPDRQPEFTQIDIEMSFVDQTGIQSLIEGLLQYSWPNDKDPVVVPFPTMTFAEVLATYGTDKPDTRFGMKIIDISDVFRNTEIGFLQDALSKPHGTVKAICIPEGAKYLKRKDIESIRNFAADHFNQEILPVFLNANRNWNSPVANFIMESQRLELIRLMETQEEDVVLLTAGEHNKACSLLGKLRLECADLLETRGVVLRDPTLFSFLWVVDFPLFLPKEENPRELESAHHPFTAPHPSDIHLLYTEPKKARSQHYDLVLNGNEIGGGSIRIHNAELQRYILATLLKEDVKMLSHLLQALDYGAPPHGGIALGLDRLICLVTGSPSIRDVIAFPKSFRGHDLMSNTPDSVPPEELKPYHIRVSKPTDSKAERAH
UniProt Q9GZP9: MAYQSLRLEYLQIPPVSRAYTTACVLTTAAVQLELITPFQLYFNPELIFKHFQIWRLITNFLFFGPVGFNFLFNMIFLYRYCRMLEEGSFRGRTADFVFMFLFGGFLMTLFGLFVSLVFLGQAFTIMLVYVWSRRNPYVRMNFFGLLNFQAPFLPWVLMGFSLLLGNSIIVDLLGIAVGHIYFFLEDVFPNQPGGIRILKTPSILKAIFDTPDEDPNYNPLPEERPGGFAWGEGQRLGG
UniProt Q9BUN8: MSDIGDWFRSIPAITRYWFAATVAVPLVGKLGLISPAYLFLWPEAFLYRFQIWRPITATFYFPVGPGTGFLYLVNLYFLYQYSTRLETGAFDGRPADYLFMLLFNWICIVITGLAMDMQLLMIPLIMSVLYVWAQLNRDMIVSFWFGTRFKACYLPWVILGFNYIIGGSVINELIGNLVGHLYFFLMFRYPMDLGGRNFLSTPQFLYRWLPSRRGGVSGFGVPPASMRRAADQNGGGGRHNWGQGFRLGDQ
UniProt Q8NA75: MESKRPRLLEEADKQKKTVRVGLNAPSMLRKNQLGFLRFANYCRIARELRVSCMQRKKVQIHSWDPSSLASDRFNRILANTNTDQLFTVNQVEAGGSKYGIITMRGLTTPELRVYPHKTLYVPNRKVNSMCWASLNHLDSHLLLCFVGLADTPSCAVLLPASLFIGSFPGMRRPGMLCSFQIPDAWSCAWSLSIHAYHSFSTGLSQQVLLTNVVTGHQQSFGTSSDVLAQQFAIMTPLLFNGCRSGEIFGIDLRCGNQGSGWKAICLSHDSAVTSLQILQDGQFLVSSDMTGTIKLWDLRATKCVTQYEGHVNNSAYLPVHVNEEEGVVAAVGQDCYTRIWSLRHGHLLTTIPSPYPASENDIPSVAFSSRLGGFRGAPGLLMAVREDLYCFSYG
UniProt Q96HY6: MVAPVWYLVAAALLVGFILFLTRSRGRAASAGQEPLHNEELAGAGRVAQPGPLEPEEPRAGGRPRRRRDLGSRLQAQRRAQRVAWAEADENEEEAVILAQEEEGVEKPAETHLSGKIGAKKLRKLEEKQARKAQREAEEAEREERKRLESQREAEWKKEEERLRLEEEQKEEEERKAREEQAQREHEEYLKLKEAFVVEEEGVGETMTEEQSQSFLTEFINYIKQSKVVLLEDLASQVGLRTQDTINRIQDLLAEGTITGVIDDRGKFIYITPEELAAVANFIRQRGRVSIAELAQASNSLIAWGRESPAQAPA
UniProt P39656: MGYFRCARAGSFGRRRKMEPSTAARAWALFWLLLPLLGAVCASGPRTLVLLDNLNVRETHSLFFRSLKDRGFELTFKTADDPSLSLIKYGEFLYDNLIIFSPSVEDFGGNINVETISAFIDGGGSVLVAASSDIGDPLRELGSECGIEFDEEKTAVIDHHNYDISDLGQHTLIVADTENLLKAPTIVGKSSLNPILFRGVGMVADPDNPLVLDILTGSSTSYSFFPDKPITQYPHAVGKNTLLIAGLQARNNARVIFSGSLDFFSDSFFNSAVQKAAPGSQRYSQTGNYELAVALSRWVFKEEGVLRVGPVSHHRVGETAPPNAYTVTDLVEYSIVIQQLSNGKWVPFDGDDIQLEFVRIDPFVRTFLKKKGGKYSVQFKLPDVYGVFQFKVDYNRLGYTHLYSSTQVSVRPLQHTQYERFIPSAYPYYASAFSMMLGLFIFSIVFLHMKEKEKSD
UniProt Q7Z4W1: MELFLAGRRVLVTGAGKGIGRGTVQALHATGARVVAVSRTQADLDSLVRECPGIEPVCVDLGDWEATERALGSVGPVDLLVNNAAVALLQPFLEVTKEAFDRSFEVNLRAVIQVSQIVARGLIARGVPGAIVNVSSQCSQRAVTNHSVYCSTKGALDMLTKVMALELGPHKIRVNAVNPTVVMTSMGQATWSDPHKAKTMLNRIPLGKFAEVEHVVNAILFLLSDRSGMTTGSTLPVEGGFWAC
UniProt P98082: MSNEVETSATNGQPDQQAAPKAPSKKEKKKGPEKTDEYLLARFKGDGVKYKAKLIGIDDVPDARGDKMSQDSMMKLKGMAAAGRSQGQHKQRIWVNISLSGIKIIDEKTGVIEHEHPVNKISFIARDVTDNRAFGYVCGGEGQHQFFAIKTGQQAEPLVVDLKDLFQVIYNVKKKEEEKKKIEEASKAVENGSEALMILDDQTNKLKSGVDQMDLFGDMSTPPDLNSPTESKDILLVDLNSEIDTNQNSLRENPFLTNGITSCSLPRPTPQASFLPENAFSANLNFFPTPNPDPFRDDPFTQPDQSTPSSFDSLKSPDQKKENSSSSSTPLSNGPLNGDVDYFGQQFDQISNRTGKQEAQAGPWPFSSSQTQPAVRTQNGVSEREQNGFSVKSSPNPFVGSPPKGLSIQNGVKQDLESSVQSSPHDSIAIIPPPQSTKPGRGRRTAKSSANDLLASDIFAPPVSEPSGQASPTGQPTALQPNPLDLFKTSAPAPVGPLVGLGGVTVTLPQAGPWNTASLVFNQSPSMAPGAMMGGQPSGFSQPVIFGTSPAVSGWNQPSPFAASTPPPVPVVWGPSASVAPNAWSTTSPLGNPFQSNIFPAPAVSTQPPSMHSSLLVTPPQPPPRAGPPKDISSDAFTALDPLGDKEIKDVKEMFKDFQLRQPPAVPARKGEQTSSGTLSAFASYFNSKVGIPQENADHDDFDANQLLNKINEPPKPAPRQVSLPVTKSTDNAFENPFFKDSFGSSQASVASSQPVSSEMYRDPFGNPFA
UniProt P14868: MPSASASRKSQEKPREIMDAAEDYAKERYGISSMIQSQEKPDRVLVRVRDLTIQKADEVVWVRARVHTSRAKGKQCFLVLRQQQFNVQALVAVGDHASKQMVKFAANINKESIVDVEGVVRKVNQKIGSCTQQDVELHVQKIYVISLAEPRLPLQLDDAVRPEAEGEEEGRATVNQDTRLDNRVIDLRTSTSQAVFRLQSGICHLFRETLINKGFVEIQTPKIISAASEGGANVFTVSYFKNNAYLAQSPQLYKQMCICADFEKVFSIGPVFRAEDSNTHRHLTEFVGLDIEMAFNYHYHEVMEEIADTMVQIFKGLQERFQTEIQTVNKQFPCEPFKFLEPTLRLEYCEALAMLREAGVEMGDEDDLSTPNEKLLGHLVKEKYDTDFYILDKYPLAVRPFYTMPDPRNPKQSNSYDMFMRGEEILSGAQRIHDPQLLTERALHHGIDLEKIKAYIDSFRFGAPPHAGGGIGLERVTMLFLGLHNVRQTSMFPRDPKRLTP

Key:
Assay in all cases: log2 fold change, soluble protein after heating vs DMSO (PISA); higher = thermal stabilisation; K562 lysate, 10 uM; active = over 0.2 and 3.5 SD of the protein, either way, in both replicates (recomputed)
nilotinib = compound: Cc1cn(-c2cc(NC(=O)c3ccc(C)c(Nc4nccc(-c5cccnc5)n4)c3)cc(C(F)(F)F)c2)cn1 [nilotinib]
Method in brief: (§1)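 Following dounce homogenisation of K562 pellets in PBS pH 7.4 with 1 mM MgCl2, crude extract at 1 mg/mL protein was incubated for 30 min with 10 μM compound. Aliquots were then heated for 3 min over 48°C-58°C and pooled, NP-40 was added to 0.5% at 4°C, and soluble protein was recovered as the supernatant at 21,000xg for 90 min. Channel-sum-equalised TMTpro 16plex LC-MS/MS quantified this protein. Each value, from duplicates, is a log-two fold change in thermal stability relative to solvent controls.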

[1] = compound: Cc1nc(Nc2n[nH]c3c2CN(C(=O)N[C@H](CN(C)C)c2ccccc2)C3(C)C)c2sccc2n1
Method in brief: as §1

dasatinib = compound: Cc1nc(Nc2ncc(C(=O)Nc3c(C)cccc3Cl)s2)cc(N2CCN(CCO)CC2)n1 [dasatinib]
Method in brief: as §1

[2] = compound: Cc1ncc(-c2ccnc(Nc3ccc(S(C)(=O)=O)cc3)n2)n1C(C)C
Method in brief: as §1

[3] = compound: Cn1cc(-c2ccc3c(c2)CCN3C(=O)Cc2cccc(C(F)(F)F)c2)c2c(N)ncnc21
Method in brief: as §1

quisinostat = compound: Cn1cc(CNCC2CCN(c3ncc(C(=O)NO)cn3)CC2)c2ccccc21 [quisinostat]
Method in brief: as §1

tipifarnib = compound: Cn1cncc1[C@@](N)(c1ccc(Cl)cc1)c1ccc2c(c1)c(-c1cccc(Cl)c1)cc(=O)n2C [tipifarnib]
Method in brief: as §1

[4] = compound: NC(=O)Nc1cc(-c2cccc(F)c2)sc1C(=O)N[C@H]1CCCNC1
Method in brief: as §1

[5] = compound: NC(=O)c1cnc(N[C@@H]2CCCC[C@@H]2N)nc1Nc1cccc(-n2nccn2)c1
Method in brief: as §1

[6] = compound: NC1(c2ccc(-c3nc4ccn5c(=O)[nH]nc5c4cc3-c3ccccc3)cc2)CCC1
Method in brief: as §1

[7] = compound: NCC(=O)Nc1ccc(-n2nc(C(F)(F)F)cc2-c2ccc3c(ccc4ccccc43)c2)cc1
Method in brief: as §1

vorinostat = compound: O=C(CCCCCCC(=O)Nc1ccccc1)NO [vorinostat]
Method in brief: as §1

silmitasertib = compound: O=C(O)c1ccc2c(c1)nc(Nc1cccc(Cl)c1)c1ccncc12 [silmitasertib]
Method in brief: as §1

[8] = compound: O=C1NC(=O)C(c2cnc3ccccn23)=C1c1cn2c3c(cc(F)cc13)CN(C(=O)N1CCCCC1)CC2
Method in brief: as §1

entospletinib = compound: c1cn2cc(-c3ccc4cn[nH]c4c3)nc(Nc3ccc(N4CCOCC4)cc3)c2n1 [entospletinib]
Method in brief: as §1

Target | log2 fold change (nilotinib) | log2 fold change [1] | log2 fold change (dasatinib) | log2 fold change [2] | log2 fold change [3] | log2 fold change (quisinostat) | log2 fold change (tipifarnib) | log2 fold change [4] | log2 fold change [5] | log2 fold change [6] | log2 fold change [7] | log2 fold change (vorinostat) | log2 fold change (silmitasertib) | log2 fold change [8] | log2 fold change (entospletinib)
DENND4A isoform 2 (UniProt Q7Z401) | inactive: -0.02 | inactive: -0.002 | inactive: -0.008 | inactive: 0.023 | inactive: 0.008 | inactive: -0.083 | inactive: -0.017 | inactive: 0.058 | inactive: 0.042 | inactive: 0.008 | inactive: 0.046 | active: -0.379 | inactive: 0.043 | inactive: -0.02 | inactive: -0.013
DCTN1 (UniProt Q14203) | inactive: 0.008 | inactive: -0.005 | inactive: -0.025 | inactive: 0.012 | inactive: 0.017 | inactive: 0.001 | inactive: -0.001 | inactive: 0.011 | inactive: 0.009 | inactive: -0.007 | inactive: 0.011 | active: -0.261 | inactive: -0.003 | inactive: 0.012 | inactive: 0.001
DBT (UniProt P11182) | inactive: 0.028 | inactive: -0.028 | inactive: -0.059 | inactive: -0.007 | inactive: 0.032 | inactive: -0.032 | inactive: -0.002 | inactive: 0.015 | inactive: 0.005 | inactive: 0.001 | inactive: -0.031 | inactive: 0.045 | inactive: -0.015 | inactive: 0.014 | inactive: 0
DCTPP1 (UniProt Q9H773) | inactive: -0.009 | inactive: 0.059 | inactive: -0.036 | inactive: 0.02 | inactive: -0.005 | inactive: -0.02 | inactive: 0.004 | inactive: -0.01 | inactive: 0.007 | inactive: -0.021 | inactive: -0.023 | inactive: 0.152 | inactive: 0.034 | inactive: -0.017 | inactive: -0.118
DCAF16 (UniProt Q9NXF7) | inactive: 0.03 | inactive: 0.004 | inactive: -0.014 | inactive: 0.021 | inactive: 0.027 | inactive: -0.037 | inactive: -0.067 | inactive: 0.038 | inactive: 0.029 | inactive: 0.038 | inactive: -0.011 | inactive: -0.003 | inactive: -0.047 | inactive: -0.017 | inactive: 0.049
DDB2 (UniProt Q92466) | inactive: -0.027 | inactive: -0.024 | inactive: -0.033 | inactive: -0.044 | inactive: 0.02 | inactive: 0.028 | inactive: 0.026 | inactive: 0.021 | inactive: 0.006 | inactive: -0.003 | inactive: 0.054 | inactive: 0.048 | inactive: -0.022 | inactive: -0.002 | inactive: 0.019
DDX50 (UniProt Q9BQ39) | inactive: -0.043 | inactive: -0.015 | inactive: 0.025 | inactive: 0.043 | inactive: 0.039 | inactive: -0.027 | inactive: 0.035 | inactive: 0.063 | inactive: 0.003 | inactive: -0.004 | inactive: 0.131 | inactive: -0.034 | inactive: 0.018 | inactive: 0.055 | inactive: -0.015
DARS2 (UniProt Q6PI48) | inactive: -0.015 | inactive: -0.012 | inactive: -0.038 | inactive: -0.017 | inactive: 0.028 | inactive: 0 | inactive: -0.015 | inactive: 0.055 | inactive: 0.011 | inactive: -0.015 | inactive: 0.039 | inactive: -0.172 | inactive: 0.027 | inactive: 0.002 | inactive: -0.012
DERL2 (UniProt Q9GZP9) | inactive: 0.001 | inactive: -0.042 | inactive: -0.005 | inactive: 0.008 | inactive: -0.028 | inactive: -0.069 | inactive: 0.016 | inactive: 0 | inactive: 0.025 | inactive: 0.017 | inactive: -0.059 | inactive: 0.156 | inactive: 0.007 | inactive: 0.052 | inactive: -0.01
DERL1 (UniProt Q9BUN8) | inactive: 0.037 | inactive: 0.071 | inactive: 0.014 | inactive: -0.009 | inactive: 0.022 | inactive: -0.035 | inactive: -0.101 | inactive: -0.035 | inactive: 0.049 | inactive: -0.038 | inactive: -0.009 | inactive: 0.083 | inactive: -0.016 | inactive: -0.006 | inactive: -0.001
DENR (UniProt O43583) | inactive: -0.008 | inactive: -0.03 | inactive: -0.001 | inactive: 0.007 | inactive: 0.016 | inactive: 0.105 | inactive: -0.015 | inactive: 0.023 | inactive: 0.009 | inactive: 0.006 | inactive: -0.005 | inactive: 0.085 | inactive: -0.039 | inactive: -0.009 | inactive: -0.007
DCAF1 (UniProt Q9Y4B6) | inactive: -0.001 | inactive: 0.006 | inactive: -0.018 | inactive: -0.031 | inactive: -0.019 | inactive: -0.022 | inactive: 0.007 | inactive: 0.025 | inactive: 0.023 | inactive: 0 | inactive: 0.005 | inactive: -0.092 | inactive: -0.012 | inactive: -0.008 | inactive: 0.005
DCAF4L2 (UniProt Q8NA75) | inactive: -0.028 | inactive: -0.026 | inactive: -0.093 | inactive: -0.151 | inactive: -0.1 | inactive: 0.142 | inactive: 0.071 | inactive: 0.008 | inactive: -0.07 | inactive: 0.061 | inactive: 0.306 | inactive: 0.102 | inactive: 0.015 | inactive: -0.039 | inactive: -0.063
DDX20 (UniProt Q9UHI6) | inactive: -0.009 | inactive: 0.008 | inactive: -0.054 | inactive: 0.003 | inactive: 0.058 | inactive: -0.058 | inactive: -0.01 | inactive: 0.095 | inactive: 0.03 | inactive: -0.024 | inactive: 0.007 | active: -0.348 | inactive: 0.069 | inactive: 0.022 | inactive: -0.008
DDRGK1 (UniProt Q96HY6) | inactive: -0.065 | inactive: -0.01 | inactive: -0.004 | inactive: 0.096 | inactive: -0.005 | inactive: -0.002 | inactive: -0.014 | inactive: 0.023 | inactive: 0.025 | inactive: -0.073 | inactive: 0.006 | inactive: 0.076 | inactive: 0.007 | inactive: -0.01 | inactive: -0.024
DDX47 (UniProt Q9H0S4) | inactive: 0.054 | inactive: -0.016 | inactive: 0.014 | inactive: 0.019 | inactive: -0.016 | inactive: -0.033 | inactive: 0.021 | inactive: -0.018 | inactive: 0.048 | inactive: -0.009 | inactive: -0.03 | inactive: -0.012 | inactive: 0.004 | inactive: -0.007 | inactive: 0.033
DDOST (UniProt P39656) | inactive: -0.036 | inactive: 0.014 | inactive: -0.013 | inactive: -0.031 | inactive: -0.001 | inactive: -0.07 | inactive: -0.079 | inactive: -0.01 | inactive: 0.019 | inactive: -0.041 | inactive: 0.019 | inactive: 0.104 | inactive: -0.005 | inactive: 0.005 | inactive: -0.027
DCXR (UniProt Q7Z4W1) | inactive: 0.005 | inactive: -0.04 | inactive: -0.02 | inactive: 0 | inactive: 0.019 | inactive: 0.019 | inactive: 0.041 | inactive: -0.019 | inactive: -0.022 | inactive: 0.017 | inactive: -0.01 | inactive: -0.083 | inactive: 0.023 | inactive: -0.049 | inactive: 0.012
DAB2 (UniProt P98082) | inactive: -0.011 | inactive: 0.024 | inactive: 0 | inactive: 0.034 | inactive: 0.02 | inactive: -0.026 | inactive: -0.034 | inactive: 0.058 | inactive: 0 | inactive: -0.002 | inactive: 0.029 | inactive: -0.047 | inactive: -0.024 | inactive: 0.005 | inactive: -0.069
DDX6 (UniProt P26196) | inactive: -0.024 | inactive: 0.005 | inactive: 0 | inactive: 0.015 | inactive: -0.008 | inactive: 0.009 | inactive: 0.018 | inactive: 0.02 | inactive: -0.007 | inactive: -0.001 | inactive: -0.002 | inactive: -0.022 | inactive: 0.018 | inactive: -0.004 | inactive: -0.005
DARS (UniProt P14868) | inactive: 0.01 | inactive: -0.004 | inactive: -0.032 | inactive: -0.015 | inactive: 0.063 | inactive: -0.007 | inactive: 0.01 | inactive: 0.044 | inactive: -0.008 | inactive: 0.002 | inactive: 0.003 | active: -0.327 | inactive: 0.056 | inactive: 0.019 | inactive: 0.035

Limited to log2 fold change (dasatinib), log2 fold change [8] and log2 fold change [4] (2 entries from above):
Target	log2 fold change (dasatinib)	log2 fold change [8]	log2 fold change [4]
DERL2 (UniProt Q9GZP9)	inactive: -0.005	inactive: 0.052	inactive: 0
DERL1 (UniProt Q9BUN8)	inactive: 0.014	inactive: -0.006	inactive: -0.035
